Reference: PubChem BioAssay AID1259308 (NCATS, 2017)

Assay: 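Knock-downs that increase output of a recombinant reporter protein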 (primary screen)
Cell system: human HEK293 embryonic kidney cells stably expressing firefly luciferase (HEK-CMV-Luc2-Hygro)
Reagents: single siRNA against human genes, 0.8 pmol siRNA per well
Timing: 72 h
Measured: 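Luciferase light (ONE-Glo) measured on one replicate plate set and viability (CellTiter-Glo) on the other, scaled to a negative control siRNA, with robust z-scores and luciferase per cell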
Direction: total luciferase, z-score and total luciferase, % of control: higher = more reporter protein produced
Active means: 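An siRNA counts as active if its total luciferase robust z-score exceeds 3; genes with two or more such siRNAs out of three were retested with fresh siRNAs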
Calls: active = raised luciferase; inactive = no rise
This is a random part of about 59,000 reagents tested. About 1,510 of all reagents (2.6%) count as active. 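Calls use total luciferase alone and ignore viability, so some active siRNAs may act by altering cell number.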 The numbers tell different reagents against one gene apart. Further read-outs or replicates are left out here. No sequences are given here.

Against ATAD5 #1, the entry reads total luciferase, z-score 1; total luciferase, % of control 102; inactive.
Depletion of ATAD5 #2 came out at: total luciferase, z-score 0.96; total luciferase, % of control 101; inactive.
For ATAD5 #3, the entry reads total luciferase, z-score -1.64; total luciferase, % of control 49.2; inactive.
After knock-down of GP2 #1 the results were total luciferase, z-score -0.0974; total luciferase, % of control 79.9; inactive.
With knock-down of GP2 #2, the record shows total luciferase, z-score -0.126; total luciferase, % of control 79.4; inactive.
GP2 #3 gave total luciferase, z-score -0.121; total luciferase, % of control 79.5; inactive.
BLOC1S4 #1 gave total luciferase, z-score 0.392; total luciferase, % of control 89.7; inactive.
Silencing of BLOC1S4 #2 resulted in: total luciferase, z-score 0.436; total luciferase, % of control 90.6; inactive.
BLOC1S4 #3 scored total luciferase, z-score -0.473; total luciferase, % of control 72.5; inactive.
For PCDHGA8 #1 the deposit lists total luciferase, z-score 0.501; total luciferase, % of control 91.8; inactive.
With knock-down of PCDHGA8 #2 the results were total luciferase, z-score -0.3; total luciferase, % of control 75.9; inactive.
For PCDHGA8 #3, the entry reads total luciferase, z-score 0.308; total luciferase, % of control 88; inactive.
